# Laboratory results: PubChem BioAssay AID1688 (National Center for Advancing Translational Sciences (NCATS), 2009)
# Where “and” joins values, the source holds several entries; their conditions need not be identical. Equal values may be shown once. In all, about 220,000 compounds went through this assay and about 2,400 (1.1%) were called active. This list was built around the results that the source calls inconclusive (neither active nor inactive); the mix of calls is not that of the screen. Calls come from the whole dose curve; as a rule, active = well fitted inhibition curve with a large enough effect; inconclusive = small, poorly fitted or top-dose-only effect, or effect the other way; inactive = no such curve, though single readings can be large or run the other way. Potencies of inconclusive entries are doubtful fits and often do not repeat.
# Test: qHTS Multiplex Assay to Identify Dual Action Probes in a Cell Model of Huntington: Aggregate Formation (GFP); note: nearly all actives have a fitted effect of over 60% in size
# Conditions: PC12 HttQ103-GFP aggregates, Acumen cytometry, 40 h; activity change, negative = inhibition: at 46.1 µM (top of the series)
# In short: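 Steps: seed 1500 PC12 HTTQ103-GFP cells/well; add tebufenozide, 100 nM final; add compound titration; add ATPLite reagent; quantify GFP aggregates by laser scanning cytometry.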
# % is set by controls: 0 for no effect and ±100 for the full control effect; potency is the fitted concentration of half-maximal effect.
SMILES,Potency,"activity change, negative = inhibition"
Cc1cccc(C2=NCC(=O)N(CC(=O)NCc3ccco3)c3sc4c(c32)CCCC4)c1,active: 11.2 µM,
Oc1cccc[c]1[Hg][Cl],active: 8.91 µM,
CC(C)[C@@]1(NC(=O)[C@@H]2C[C@@H]3c4cccc5[nH]cc(c45)C[C@H]3N(C)C2)O[C@@]2(O)[C@@H]3CCCN3C(=O)[C@H](Cc3ccccc3)N2C1=O,"inconclusive: 35.5 µM [inhibitor, single point]",
O=C(c1sc2ccccc2c1Cl)N1CCC2(CC1)OCCO2,inactive,
O=c1c2ccccc2nc(-c2ccc([N+](=O)[O-])cc2)n1-c1ccccc1,"inconclusive: 1.12 µM [activator, single point]",
Cc1ccc(-n2c(O)c(/C=C3/C(c4ccccc4)=Nc4ccccc43)c(=O)[nH]c2=O)cc1,active: 11.2 µM,
CC(=NCc1ccco1)c1c(O)n(C)c(=O)n(C)c1=O,active: 15.8 µM,
COc1ccccc1N1CCN(C2CCN(C(=O)c3cc(OC)c(OC)c(OC)c3)CC2)CC1,"inconclusive: 0.316 µM [inhibitor, partial curve, poor fit]",
Oc1ccc(/C=N/NP(=S)(c2ccccc2)c2ccccc2)c(O)c1O,inactive,
CCCCCCCCCCCCOCCOCCOCCOCCOCCOCCOCCOCCOCCO,"inconclusive: 35.5 µM [inhibitor, single point]",
O=C(/C=C/c1ccccc1)c1c(O)n(CCc2ccccc2)c(=O)[nH]c1=O,"inconclusive: 35.5 µM [inhibitor, single point]",
O=C(Cc1ccccc1)N1CCN(Cc2c[nH]c3ccccc23)CC1,active: 12.6 µM,
CCCCCC(O)C1C(=O)OC(C)C(O)\C=C/C=C\C=C/C=C\C=C(\C)C(O)C(O)C(O)CC(O)CC(O)CC(O)CC(O)CC1O (centres undefined),inactive,
CNC(=O)NC(O)C(Cl)(Cl)Cl (centres undefined),inactive,
Brc1ccccc1Cn1c(-c2cncs2)nc2ccccc21,"inconclusive: 11.2 µM [activator, partial curve, poor fit]",
O=C(CC1CCCCC1)N1CCC(c2nc(-c3ccc(S(=O)(=O)N4CCCC4)cc3)no2)CC1,"inconclusive: 8.91 µM [inhibitor, partial curve]",
Cc1cc2c(s1)NC(=O)CN=C2c1cccs1,inactive,
CCCCCCn1c(O)c(C=NCCN2CCOCC2)c(=O)[nH]c1=O,inactive,
CCCCn1c(=O)c(C(=O)Nc2nc3ccccc3[nH]2)c(O)c2ccccc21,"inconclusive: 2.24 µM [inhibitor, partial curve]",
CC(=O)Nc1nc(CCl)cs1,inactive,
CCC(C)n1c(O)c(C(c2ccccn2)c2c(O)n(C(C)CC)c(=S)[nH]c2=O)c(=O)[nH]c1=S (centres undefined),inactive,
CC(C)CCNC(=O)Cn1c(=O)oc2cc(S(=O)(=O)N3CCc4ccccc43)ccc21,"inconclusive: 8.91 µM [inhibitor, partial curve]",

# As a working copy, 14 of the compounds above:
SMILES,Potency,"activity change, negative = inhibition"
O=c1c2ccccc2nc(-c2ccc([N+](=O)[O-])cc2)n1-c1ccccc1,"inconclusive: 1.12 µM [activator, single point]",
Cc1ccc(-n2c(O)c(/C=C3/C(c4ccccc4)=Nc4ccccc43)c(=O)[nH]c2=O)cc1,active: 11.2 µM,
CC(=NCc1ccco1)c1c(O)n(C)c(=O)n(C)c1=O,active: 15.8 µM,
COc1ccccc1N1CCN(C2CCN(C(=O)c3cc(OC)c(OC)c(OC)c3)CC2)CC1,"inconclusive: 0.316 µM [inhibitor, partial curve, poor fit]",
Oc1ccc(/C=N/NP(=S)(c2ccccc2)c2ccccc2)c(O)c1O,inactive,
CCCCCCCCCCCCOCCOCCOCCOCCOCCOCCOCCOCCOCCO,"inconclusive: 35.5 µM [inhibitor, single point]",
O=C(/C=C/c1ccccc1)c1c(O)n(CCc2ccccc2)c(=O)[nH]c1=O,"inconclusive: 35.5 µM [inhibitor, single point]",
O=C(Cc1ccccc1)N1CCN(Cc2c[nH]c3ccccc23)CC1,active: 12.6 µM,
CCCCCC(O)C1C(=O)OC(C)C(O)\C=C/C=C\C=C/C=C\C=C(\C)C(O)C(O)C(O)CC(O)CC(O)CC(O)CC(O)CC1O (centres undefined),inactive,
CNC(=O)NC(O)C(Cl)(Cl)Cl (centres undefined),inactive,
Brc1ccccc1Cn1c(-c2cncs2)nc2ccccc21,"inconclusive: 11.2 µM [activator, partial curve, poor fit]",
O=C(CC1CCCCC1)N1CCC(c2nc(-c3ccc(S(=O)(=O)N4CCCC4)cc3)no2)CC1,"inconclusive: 8.91 µM [inhibitor, partial curve]",
Cc1cc2c(s1)NC(=O)CN=C2c1cccs1,inactive,
CCCCCCn1c(O)c(C=NCCN2CCOCC2)c(=O)[nH]c1=O,inactive,

# The list continues:

SMILES,Potency,"activity change, negative = inhibition"
Cc1ccc2c(c1)C1CN(C)CCC1N2C(=O)c1cccs1 (centres undefined),,inactive: 2.21% [at 9.22 µM]
COc1cc(Cn2c(N)c(C(=O)NCc3ccco3)c3nc4ccccc4nc32)cc(OC)c1OC,"inconclusive: 35.5 µM [inhibitor, single point]",
O=C(CCNS(=O)(=O)c1ccccc1)Nc1ccc(Cl)cc1C(=O)c1ccccc1,"inconclusive: 2.82 µM [activator, single point]",
Nc1c(C(=O)NCCCc2ccccc2)c2nc3ccccc3nc2n1Cc1cccs1,"inconclusive: 35.5 µM [inhibitor, single point]",
CC[C@]1([C@H]2O[C@@H]([C@@H]3O[C@](O)(CO)[C@@H](C)C[C@H]3C)C[C@H]2C)CC[C@@H]([C@]2(C)CC[C@@]3(C[C@@H](O)[C@@H](C)[C@@H]([C@H](C)[C@H](OC)[C@H](C)C(=O)O)O3)O2)O1,"inconclusive: 0.891 µM [inhibitor, full curve]",
COc1cc(C)c(-c2nc(CN3C[C@@H]4C[C@@H](C3)c3cccc(=O)n3C4)c(C)o2)cc1C,,inactive: 18.5% [at 9.22 µM]
O=c1c2ccccc2[nH]c(=S)n1-c1ccc(Br)cc1,"inconclusive: 6.31 µM [activator, single point]",
O=C1CC(=O)N(c2ccc(Cl)cc2Cl)C(=O)N1,inactive,
COc1ccc(Cn2c(N)c(C(=O)NCc3ccco3)c3nc4ccccc4nc32)cc1,"inconclusive: 35.5 µM [inhibitor, single point]",
COc1ccc(-n2c(O)c(C(C)=NCCCn3ccnc3)c(=O)[nH]c2=O)cc1,"inconclusive: 20 µM [inhibitor, partial curve, poor fit]",
Cc1cc(C)cc(N2C(=O)NC(=O)/C(=C\c3cccn3-c3ccccc3)C2=O)c1,active: 28.2 µM,
CCC(=NCCOc1ccc(Cl)cc1)c1c(O)n(C)c(=O)n(C)c1=O,active: 11.2 µM,
COc1ccc(NC(=O)N2CCC3(CC2)OCCO3)cc1,,inactive: -5% [at 9.22 µM]
O=Cc1cn(Cc2ccc(F)cc2Cl)c2ccccc12,active: 10 µM,
C[C@@H]1O[C@H](O[C@@H]2C=C3CC[C@H]4[C@@H](CC[C@]5(C)[C@@H](c6ccc(=O)oc6)CC[C@]45O)[C@@]3(C)CC2)[C@@H](O)[C@H](O)[C@@H]1O,"inconclusive: 12.6 µM [activator, partial curve, poor fit]",
CCOC(=O)c1c(C)c(P(=S)(N2CCOCC2)N2CCOCC2)n(C)c1C,inactive,
Nc1ccccc1-[n+]1c(-c2ccccc2)cc(-c2ccccc2)cc1-c1ccccc1,,inactive: -18.8% [at 9.22 µM]
CN1C(=O)C(=CN2CCN(C(=O)c3ccco3)CC2)C(=O)N(C)C1=S,"inconclusive: 10 µM [inhibitor, partial curve]",
CN(C)C(=O)C(CCN1CCC(O)(c2ccc(Cl)cc2)CC1)(c1ccccc1)c1ccccc1,"inactive and inconclusive: 39.8 µM [inhibitor, single point]",
O=Cc1cn(CCCOc2ccccc2)c2ccccc12,"inconclusive: 14.1 µM [inhibitor, single point]",
O=c1c2cc(Cl)cc(Cl)c2nc(CN2CCOCC2)n1-c1ccccc1F,inactive,
CN(C)c1ccc(C=C(C#N)C#N)cc1,inactive,

SMILES,Potency,"activity change, negative = inhibition"
NS(=O)(=O)c1ccc(N=Cc2c(O)n(C3CCCCC3)c(=O)n(C3CCCCC3)c2=O)cc1,"inconclusive: 35.5 µM [inhibitor, single point]",
COc1ccc2c(c1)c(C(=O)CN1CCC3(CC1)OCCO3)c(C)n2Cc1ccccc1,"inconclusive: 17.8 µM [activator, partial curve]",
Cc1cccc(N2C(=O)NC(=O)/C(=C/c3ccc([N+](=O)[O-])o3)C2=O)c1,"inconclusive: 0.562 µM [inhibitor, partial curve, poor fit]",
[O]=[Cr](=[O])([OH])[O][Cr](=[O])(=[O])[OH],"inconclusive: 35.5 µM [inhibitor, single point] and inconclusive: 31.6 µM [inhibitor, partial curve, poor fit]",
CCCCn1c(O)c(C=NC2CCCCC2N)c(=O)[nH]c1=O (centres undefined),"inconclusive: 10 µM [activator, partial curve]",
COc1cc2c3cc1Oc1cc(ccc1O)C[C@@H]1c4c(cc(OC)c(O)c4Oc4ccc(cc4)C[C@H]3N(C)CC2)CCN1C,"inconclusive: 1 µM [inhibitor, full curve, poor fit]",
COc1ccc(CNc2oc(-c3cccc4ccccc34)nc2P(=O)(OC)OC)cc1,"inconclusive: 4.47 µM [activator, single point]",
COc1ccc([N+](=O)[O-])cc1CSc1ccccn1,"inconclusive: 31.6 µM [inhibitor, single point]",
Cc1cc(C=C2C(=O)NC(=O)NC2=O)c(C)n1-c1cccnc1,,inactive: -25.4% [at 9.22 µM]
O=C(Nc1ccc(OC(=O)N2CCCC2)cc1)N1CCOCC1,inactive,
CC(=NCc1ccc2c(c1)OCO2)c1c(O)[nH]c(=O)[nH]c1=O,"inconclusive: 5.62 µM [activator, single point]",
O=c1[nH]c(=O)n(C2CCCCC2)c(O)c1C1NCCc2ccccc21 (centres undefined),"inconclusive: 12.6 µM [activator, single point]",
CC1(C)C[C@H]2C=C(C=O)[C@]3(C=O)C[C@]3(C)[C@H]2C1,active: 8.91 µM,
O=C1CC(C(=O)N2CCC3(CC2)OCCO3)CN1CCc1ccccc1 (centres undefined),"inconclusive: 2.82 µM [inhibitor, single point]",
C=CCn1c(O)c(C(=O)CCCCCC)c(=O)[nH]c1=O,"inconclusive: 35.5 µM [inhibitor, single point]",
COc1cc([C@@H]2c3cc4c(cc3[C@@H](OC)[C@H]3COC(=O)[C@H]23)OCO4)cc(OC)c1O,"inconclusive: 0.562 µM [inhibitor, full curve]",
O=C(c1ccc(Cl)cc1)C1CCCN(Cc2ccc3nonc3c2)C1 (centres undefined),"inconclusive: 17.8 µM [inhibitor, single point]",
Cc1ccc(-n2c(/C=C/c3ccc4c(c3)OCO4)nc3ccccc3c2=O)cc1,"inconclusive: 17.8 µM [activator, single point]",
Cc1ccc2nc(-c3ccncc3)cc(C(=O)N3CCC4(CC3)OCCO4)c2c1,"inconclusive: 1.26 µM [inhibitor, partial curve]",
CC(=O)c1c(C)n(CC2CCCO2)c2ccc(O)cc12 (centres undefined),"inconclusive: 3.16 µM [inhibitor, partial curve]",
